# Data reported in paper PMC7819943, “Rice protein-binding microarrays: a tool to detect cis-acting elements near promoter regions in rice”.
# Protein sequences, listed by entry. Tags and fused reporters are not part of them.
# UniProt Q0JBA9, entry or part of it: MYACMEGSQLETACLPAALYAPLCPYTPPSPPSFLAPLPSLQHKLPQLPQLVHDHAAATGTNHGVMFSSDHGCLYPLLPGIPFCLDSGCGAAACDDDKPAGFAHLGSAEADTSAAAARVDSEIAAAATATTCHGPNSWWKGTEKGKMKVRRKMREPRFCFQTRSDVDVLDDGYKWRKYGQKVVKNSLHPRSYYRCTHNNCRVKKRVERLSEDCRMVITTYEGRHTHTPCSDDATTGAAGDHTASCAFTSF
# The list shows a part of the results.
# Molecular target: OsWRKY34 (Oryza sativa, UniProt Q0JBA9 1-250)
# Assay: protein-binding microarray (RPBM); PBS, 2% BSA, 51.3 ng/ul salmon testes DNA, 50 uM zinc acetate, 200 nM TF, 25 C, 1 h; high values mean tight binding
# Conditions: protein: recombinant; tags: N-terminal polyhistidine and DsRed monomer fusion (pET32a); label: CyDye5-dUTP incorporated in the synthesized complementary strand; 3' TTTTT single-stranded linker to array surface; dsDNA, one strand shown
# Outline: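 The binding signal is fluorescence intensity per array feature (arbitrary units). Readings came from an Axon 4000B scanner after a washed, 2% BSA-blocked, double-stranded custom Agilent array had been incubated for 1 h at 25 °C with 200 nM protein and 50 µM zinc acetate. The protein was a Ni–NTA-purified transcription factor fused N-terminally to polyhistidine and DsRed, expressed in E. coli BL21-CodonPlus.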
row,Sequence,binding signal
1,ACTCGCGATATGCTTGTAACTTGGTTTGGTATTCCATTCTCGGAGTCACCTAGTGCAG,9670 fluorescence intensity (a.u.)
2,AAATATACCGTTTTGCTTATTCCGCGATGGCTCCAAGTCTCGGAGTCACCTAGTGCAG,11400 fluorescence intensity (a.u.)
3,GTATTTCTATATGGACTCTAGTCACCTCTTCTAATATTTCCGGAGTCACCTAGTGCAG,10300 fluorescence intensity (a.u.)
4,ACATACTTCCTAAACTGCTAAACGGTGTATGTTTGTTTTTCGGAGTCACCTAGTGCAG,9770 fluorescence intensity (a.u.)
5,TTGCTGCGCAAAGATTTGGTCCTTTCTCGGTCTGTTTCTTCGGAGTCACCTAGTGCAG,9420 fluorescence intensity (a.u.)
6,ATGGGTTAATTTTTGGATATATGTTAACTTGCTCACTATACGGAGTCACCTAGTGCAG,8430 fluorescence intensity (a.u.)
7,TGACTCCCTTAACTATTGGCCAAATCTAATTCGTATCCTTCGGAGTCACCTAGTGCAG,9250 fluorescence intensity (a.u.)
8,ATAGGCATGGTTTAATTATTCGGTTTGGCCGATTCTATCACGGAGTCACCTAGTGCAG,9190 fluorescence intensity (a.u.)
9,CCCCACCCCGCGTGTCCACCCACCCACCCGCACCAATTTTCGGAGTCACCTAGTGCAG,9600 fluorescence intensity (a.u.)
10,ATCTCCGCCGCCGCCGCCTCCTACTCGTCGCCCTCCTCCTCGGAGTCACCTAGTGCAG,10300 fluorescence intensity (a.u.)
11,ATATATCATTGTGTATTTCTATCTTTTGCTGTTGTAATAGCGGAGTCACCTAGTGCAG,9670 fluorescence intensity (a.u.)
12,GGTTGGGGCGTGGGCGGCTGGGCGCGTGGGTTGCCCGCGACGGAGTCACCTAGTGCAG,15600 fluorescence intensity (a.u.)
13,GCTTGTGGTTCGTTAGAATCTTGCTTTGTTGCCGCCTAACCGGAGTCACCTAGTGCAG,8070 fluorescence intensity (a.u.)
14,CTTTTCTAGCCGTTCACTTTTTTTTACCACAGTAGTTTTTCGGAGTCACCTAGTGCAG,16600 fluorescence intensity (a.u.)
15,CATGCACTCTCGCCATCTCGATCTTTTTACCCAATTCTTGCGGAGTCACCTAGTGCAG,8280 fluorescence intensity (a.u.)
16,TGCTAATGGTTTTTTTGTTATGCATTCCTTTAACTTCATCCGGAGTCACCTAGTGCAG,12400 fluorescence intensity (a.u.)
17,AAAACCTGCAGCAGAGATGAGCCGTTTCGTTTCCTTTCGTCGGAGTCACCTAGTGCAG,8870 fluorescence intensity (a.u.)
18,AGTCCAAGCCGGCCCAACACCCAGCCGAGCCGCCAATTCGCGGAGTCACCTAGTGCAG,8050 fluorescence intensity (a.u.)
19,TTACACTACGATTGTACTGTAATTACATCTGTCAAATTTTCGGAGTCACCTAGTGCAG,8450 fluorescence intensity (a.u.)
20,TAATCCAGTGGGAACACAGCAACGCACCTTTTTTTGTTTTCGGAGTCACCTAGTGCAG,10100 fluorescence intensity (a.u.)
21,GCTCAATTCCTAGCCGTTGCCATATACTACTCCGTATGTGCGGAGTCACCTAGTGCAG,11000 fluorescence intensity (a.u.)

# Quoted at random: two entries already listed
row,Sequence,binding signal
20,TAATCCAGTGGGAACACAGCAACGCACCTTTTTTTGTTTTCGGAGTCACCTAGTGCAG,10100 fluorescence intensity (a.u.)
15,CATGCACTCTCGCCATCTCGATCTTTTTACCCAATTCTTGCGGAGTCACCTAGTGCAG,8280 fluorescence intensity (a.u.)

# More entries:

row,Sequence,binding signal
1,CGAGTCAAGCTCCGCCAGTGAGAATACAGGTTGACTTCGACGGAGTCACCTAGTGCAG,8510 fluorescence intensity (a.u.)
2,CCTCAACGGCACCATCCCCGCCGGCTTGCTCTACCTGCCACGGAGTCACCTAGTGCAG,9380 fluorescence intensity (a.u.)
3,GGCTTTCAAGCTTCCAGCCCAGTTTAGTTCAACGCCCATTCGGAGTCACCTAGTGCAG,8320 fluorescence intensity (a.u.)
4,AGGTGTTGGTTGGGAAATCCGATACTTATGCGGGGTTCCCCGGAGTCACCTAGTGCAG,8840 fluorescence intensity (a.u.)
5,AACACATGAATCAGTGTTTTGACTCATTTCTCCCTTTGTACGGAGTCACCTAGTGCAG,8250 fluorescence intensity (a.u.)
6,AGTTCTTTTACCAACTTTTCCAATTTACCACCCTCATTTTCGGAGTCACCTAGTGCAG,8560 fluorescence intensity (a.u.)
7,CTATATAAGCAGCCGCAGTAGCGCACCACATAGCTCGCTCCGGAGTCACCTAGTGCAG,8210 fluorescence intensity (a.u.)
8,GAAGGTTCCTTGGTTTTCATATAGACTTTCCATACAGCATCGGAGTCACCTAGTGCAG,8520 fluorescence intensity (a.u.)
9,CGCCAACTCCGGCCCGCCTAGTCTTTCTCAACAACCAGAACGGAGTCACCTAGTGCAG,8280 fluorescence intensity (a.u.)
10,GCTGGGAGCTCGGATCACGTCGTGTGGTTGTGGGGATGGACGGAGTCACCTAGTGCAG,9170 fluorescence intensity (a.u.)
11,GGCGAGGGTGGGTATGGGACAAGGCGGTGGATGATGGTTCCGGAGTCACCTAGTGCAG,12200 fluorescence intensity (a.u.)
12,ATATCCTTCCAAATGATACTGTGCTTCTTTCTGTTACAAACGGAGTCACCTAGTGCAG,9410 fluorescence intensity (a.u.)
13,ATGATGATTGGTTGGTTACGGGCATGTTCAGATTGTAGCCCGGAGTCACCTAGTGCAG,9600 fluorescence intensity (a.u.)
14,ATCTCATACTTCATCAGTGAATAATTTCATGAGTATTGTTCGGAGTCACCTAGTGCAG,8510 fluorescence intensity (a.u.)
15,AATAAGCAACCCAGTCTTACACGCGACACGGCATATGCACCGGAGTCACCTAGTGCAG,9670 fluorescence intensity (a.u.)
16,CGCTTACCACTCTCCTCTAGCCGCCGGCGCCTCCGCCGCGCGGAGTCACCTAGTGCAG,11100 fluorescence intensity (a.u.)
17,AACTTGCTCTAATGATTTCCTCAAGTTGTTTAATTTTTGACGGAGTCACCTAGTGCAG,9010 fluorescence intensity (a.u.)
18,AGCATTTAACTATTTACCACTCATAGTCTATACCCTTCTCCGGAGTCACCTAGTGCAG,9170 fluorescence intensity (a.u.)
19,CGCACCGCCGGACCAGCGCCGCCATCCCAAATCGCAAACACGGAGTCACCTAGTGCAG,8650 fluorescence intensity (a.u.)
20,GGCCCATTTTGCCACCAGGATCCCTAGTTCTCTAGTCCCTCGGAGTCACCTAGTGCAG,9600 fluorescence intensity (a.u.)
21,ACGAGAAGTTGCAGAACTAGTTTGTTTTCACGATACCATGCGGAGTCACCTAGTGCAG,8360 fluorescence intensity (a.u.)
